PubChem BioAssay AID1259254, NCATS | 2017
This is a random part of about 59,000 deposited reagents. About 1,550 of all reagents (2.6%) count as active. 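G2 share is only a proxy for re-replication; each gene was hit by three separate siRNAs, and active genes were retested.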 Unmarked entries are inactive. Not all columns of the deposit are shown. Not stated in the record: the amount of reagent.

Aim: 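Gene knock-downs that lead to re-replication, shown by excess G2 DNA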 (primary screen)
System: human HCT116 colorectal cancer cells
Knock-down reagent: single siRNA against human genes
Duration: 3 days
Measured: 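Nuclei stained with Hoechst and imaged; cell-cycle phase assigned by DNA content; G2 share scaled per plate, non-targeting siRNA 0%, GMNN siRNA 100%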
Scale: G2 robust z-score: higher = more G2 cells, more excess DNA replication
Active means: 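An siRNA counts as active if its G2 robust z-score lies at least 5 MADs above the screen median; here such calls match roughly 38% of GMNN control or more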

no.	gene	PubChem SID	G2 robust z-score
1	ACO1 (aconitase 1)	SID160731307	1.05
2	ACO1 (aconitase 1)	SID160775122	-0.466
3	ACO1 (aconitase 1)	SID160775133	3.51
4	RTN4R (reticulon 4 receptor)	SID160748240	1.46
5	RTN4R (reticulon 4 receptor)	SID160748242	0.0307
6	RTN4R (reticulon 4 receptor)	SID160748243	-1.3
7	LCN12 (lipocalin 12)	SID160725042	1.67
8	LCN12 (lipocalin 12)	SID160731016	0.302
9	LCN12 (lipocalin 12)	SID160763824	0.614
10	DNAJC2 (DnaJ heat shock protein family (Hsp40) member C2)	SID160730952	0.107
11	DNAJC2 (DnaJ heat shock protein family (Hsp40) member C2)	SID160738235	-0.18
12	DNAJC2 (DnaJ heat shock protein family (Hsp40) member C2)	SID160738236	-0.882
13	CHSY3 (chondroitin sulfate synthase 3)	SID160763971	-0.488
14	CHSY3 (chondroitin sulfate synthase 3)	SID160763972	0.862
15	CHSY3 (chondroitin sulfate synthase 3)	SID160763973	-0.375
16	STK17A (serine/threonine kinase 17a)	SID160721840	0.14
17	STK17A (serine/threonine kinase 17a)	SID160721841	-1.24
18	STK17A (serine/threonine kinase 17a)	SID160721842	-0.979
19	RPP14 (ribonuclease P/MRP subunit p14)	SID160729947	3.25
20	RPP14 (ribonuclease P/MRP subunit p14)	SID160729949	1.93
21	RPP14 (ribonuclease P/MRP subunit p14)	SID160729950	1.24
22	RIOK2 (RIO kinase 2)	SID160731529	0.466
23	RIOK2 (RIO kinase 2)	SID160774585	-0.755
24	RIOK2 (RIO kinase 2)	SID160774606	-1.04
25	SYNJ2 (synaptojanin 2)	SID160721017	0.252
26	SYNJ2 (synaptojanin 2)	SID160721018	0.386
27	SYNJ2 (synaptojanin 2)	SID160721019	-0.363
28	HEG1 (heart development protein with EGF like domains 1)	SID160746098	-0.531
29	HEG1 (heart development protein with EGF like domains 1)	SID160746099	-0.846
30	HEG1 (heart development protein with EGF like domains 1)	SID160746101	1.08

5 entries already listed, ordered by “G2 robust z-score”, low to high.
gene	PubChem SID	G2 robust z-score
DNAJC2 (DnaJ heat shock protein family (Hsp40) member C2)	SID160738236	-0.882
CHSY3 (chondroitin sulfate synthase 3)	SID160763971	-0.488
DNAJC2 (DnaJ heat shock protein family (Hsp40) member C2)	SID160738235	-0.18
DNAJC2 (DnaJ heat shock protein family (Hsp40) member C2)	SID160730952	0.107
LCN12 (lipocalin 12)	SID160763824	0.614
